Assay results reported in patent US7683061B2, “Triazine dimers for the treatment of autoimmune diseases” (ProMetic BioSciences Inc., priority 2003, dated 2010).
Some results were stated once for a whole list of compounds, not compound by compound.

Tested on: NZBxNZW mice
Experiment: SLE-glomerulonephritis in NZBxNZW mice
Format: in vivo
Conditions: second SLE study, FIG. 4
Excerpt: New Zealand mice of the F1 hybrid cross NZBxNZW develop most of the autoimmune abnormalities seen in human SLE and die from SLE-like immune complex (IC)-mediated glomerulonephritis. The mice develop high titers of anti-DNA (double-strand and single-strand) and nuclear extract (NE) antibodies, as well as SLE-related clinical manifestations including leukopenia, thrombocytopenia, proteinuria and glomerulonephritis. These mice develop anti-DNA antibodies after the age of 3 months, with a peak of anti-DNA antibody response occurring at 7 months. Subsequently, the serum concentration of anti-DNA antibodies declines, presumably as a consequence of progressive uremia. The first serological manifestations of the disease occurs at about 150 days (5 months). Their survival is evaluated at approximately 250 days.
FIG. 2 illustrates the effect of compound 1 on the mortality of the NZBxNZW mice. Intravenous administration of compound or vehicle was undertaken once a week from week 18 to week 37. Treatment ceased for 11 weeks and was restarted at week 48 for the control and compound 1 groups. […] It also delays the appearance of symptoms and mortality up to week 45. FIG. 3 illustrates the proteinuria at week 48 to 51.

Row | SMILES | increase in survival compared to the control group
1 | Oc1ccc(CCNc2nc(NCCNc3nc(NCCc4ccc(O)cc4)nc(Nc4ccccc4)n3)nc(Nc3ccccc3)n2)cc1 [Compound 1] | up to 35%
2 | O=C(O)c1ccccc1Nc1nc(NCCNc2nc(NCCc3ccc(O)cc3)nc(Nc3ccccc3C(=O)O)n2)nc(NCCc2ccc(O)cc2)n1 [Compound 9] | up to 35%
